{"source": "PubChem BioAssay AID493014", "about": "(National Center for Advancing Translational Sciences (NCATS), 2011)", "assay": "qHTS Assay to Find Inhibitors of Chronic Active B-Cell Receptor Signaling", "conditions": "ABC-DLBCL IkBa-CBG/CBR reporter, luminescence ratio (green luciferase fused to IkBa over red control in TMD8 lymphoma cells), 4 h", "in_short": "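Concentration-response series (up to 46 uM) were applied to TMD8 dual-reporter cells for 4 h at 37C with doxycycline. Green/red ratio, after filter-overlap correction, defined %Activity; red signal alone was normalised to basal cells and zero luminescence.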", "key": {"[1]": {"conditions": "measured here: CBR red luminescence, cell number"}, "[2]": {"conditions": "measured here: IkBa-CBG green luminescence"}}, "note": "This is one part of the list. The main result of the screen is listed elsewhere. These columns were measured beside it and carry no call. Compounds called inactive in the main read-out are mostly missing here. Potencies come from curve fits of mixed quality, noted in brackets."}
{"smiles": "Cc1noc(C)c1C(=O)NCCc1ccc(Cl)cc1", "values": [{"measurement": "AC50", "setting": "[1]", "result": "18.4 µM [rising, single point]"}, {"measurement": "AC50", "setting": "[2]", "result": "16.4 µM [falling, partial curve, poor fit]"}]}
{"smiles": "Cc1c(C(=O)OCC(=O)NCCc2ccc(S(N)(=O)=O)cc2)oc2ccccc12", "values": [{"measurement": "AC50", "setting": "[1]", "result": "2.91 µM [rising, full curve, poor fit]"}]}
{"smiles": "CCCn1nnnc1SCC(=O)N1CCCc2ccccc21", "values": [{"measurement": "AC50", "setting": "[1]", "result": "11.6 µM [rising, partial curve]"}]}
{"smiles": "COc1ccccc1-c1cc(C(=O)NCc2cccs2)no1", "values": [{"measurement": "AC50", "setting": "[1]", "result": "2 µM [falling, full curve]"}]}
{"smiles": "CC(=O)c1cc(C(=O)c2ccccc2)sc1Nc1ccccc1", "values": [{"measurement": "AC50", "setting": "[1]", "result": "25.9 µM [falling, single point]"}]}
{"smiles": "COc1ccc(C(=O)N(Cc2nc(-c3ccc(C)cc3)no2)C(C)C)cc1OC", "values": [{"measurement": "AC50", "setting": "[1]", "result": "18.4 µM [rising, single point]"}]}
{"smiles": "CC1(C)OC(=O)C(C(c2ccccc2)C(C#N)C(N)=O)=C(O)O1", "note": "(centres undefined)", "values": [{"measurement": "AC50", "setting": "[1]", "result": "29.1 µM [rising, single point]"}]}
{"smiles": "CC(NC(=O)c1ccccc1)C(=O)N/N=C/c1ccc(O)cc1", "note": "(centres undefined)", "values": [{"measurement": "AC50", "setting": "[1]", "result": "35.5 µM [falling, single point]"}]}
{"smiles": "CN(C)S(=O)(=O)c1cc(NC(=O)[C@H](Cc2ccccc2)N2C(=O)c3ccccc3C2=O)ccc1Cl", "values": [{"measurement": "AC50", "setting": "[1]", "result": "3.66 µM [rising, partial curve, poor fit]"}]}
{"smiles": "C=CCON1C(=O)c2ccccc2C1=O", "values": [{"measurement": "AC50", "setting": "[1]", "result": "16.4 µM [falling, single point]"}]}
{"smiles": "Cc1sc(NC(=O)CN2CCCC2)nc1-c1ccc2c(c1)CCN2C(=O)c1cccc(F)c1", "values": [{"measurement": "AC50", "setting": "[1]", "result": "8.91 µM [falling, partial curve, poor fit]"}]}
{"smiles": "COc1ccccc1-c1nnc2sc(-c3cnccn3)nn12", "values": [{"measurement": "AC50", "setting": "[1]", "result": "1.03 µM [falling, single point]"}]}
{"smiles": "O=C(Oc1ccccc1C(=O)Nc1ccccc1)c1ccccc1Br", "values": [{"measurement": "AC50", "setting": "[1]", "result": "29.1 µM [falling, single point]"}, {"measurement": "AC50", "setting": "[2]", "result": "4.11 µM [falling, partial curve, poor fit]"}]}
{"smiles": "Cc1noc(C)c1CSc1nc2sc(C)c(C)c2c(=O)n1C1CCCC1", "values": [{"measurement": "AC50", "setting": "[1]", "result": "20.6 µM [rising, single point]"}]}
{"smiles": "CCOC(=O)c1c(NC(=O)COC(=O)CCNS(=O)(=O)c2ccccc2)sc(C(=O)N(C)C)c1C", "values": [{"measurement": "AC50", "setting": "[1]", "result": "16.4 µM [rising, partial curve, poor fit]"}]}
{"smiles": "O=C(Nc1nnc(-c2ccccc2)s1)c1ccccc1F", "values": [{"measurement": "AC50", "setting": "[1]", "result": "2.51 µM [falling, partial curve, poor fit]"}]}
{"smiles": "COc1ccc(OC)c(/C=C/C(=O)c2ccc(Cl)cc2)c1", "values": [{"measurement": "AC50", "setting": "[1]", "result": "35.5 µM [rising, single point]"}]}
{"smiles": "O=C(COc1ccc2ccccc2c1)NNC(=O)c1ccc([N+](=O)[O-])cc1", "values": [{"measurement": "AC50", "setting": "[1]", "result": "35.5 µM [rising, partial curve, poor fit]"}]}
{"smiles": "CCC(=O)Nc1cccc(C(=O)/C=C/c2ccc(F)cc2)c1", "values": [{"measurement": "AC50", "setting": "[1]", "result": "11.2 µM [falling, partial curve, poor fit]"}]}
{"smiles": "Cc1cccc(OC(C)C(=O)Nc2cc(Cl)ccc2-n2cncn2)c1", "note": "(centres undefined)", "values": [{"measurement": "AC50", "setting": "[1]", "result": "0.461 µM [rising, full curve]"}]}
{"smiles": "Cc1nnc(SCc2cccc(Cl)c2)n(N)c1=O", "values": [{"measurement": "AC50", "setting": "[1]", "result": "3.55 µM [falling, full curve]"}]}
{"smiles": "Brc1ccc2c(c1)CNc1c(ncnc1N1CCOCC1)O2", "values": [{"measurement": "AC50", "setting": "[1]", "result": "8.91 µM [rising, partial curve, poor fit]"}, {"measurement": "AC50", "setting": "[2]", "result": "5.62 µM [falling, partial curve, poor fit]"}]}
{"smiles": "Cc1nc(NCc2ccccc2)[nH]c(=O)c1CCC(C)C", "values": [{"measurement": "AC50", "setting": "[1]", "result": "0.103 µM [rising, full curve, poor fit]"}]}
{"smiles": "Cc1c(C(=O)Nc2ccc(-c3nnc4n3CCCCC4)cc2)oc2c1ccc1ccccc12", "values": [{"measurement": "AC50", "setting": "[2]", "result": "5.17 µM [rising, partial curve, poor fit]"}]}
{"smiles": "O=C(/C=C/c1cccs1)NC(=S)Nc1ccc(C(=O)O)cc1", "values": [{"measurement": "AC50", "setting": "[1]", "result": "0.251 µM [falling, full curve, poor fit]"}]}
{"smiles": "CCCN(CCC)CCCNC(=S)Nc1ccc2nc(N3CCN(CC)CC3)cc(C)c2c1", "values": [{"measurement": "AC50", "setting": "[1]", "result": "1.12 µM [falling, full curve, poor fit]"}]}
{"smiles": "CCOc1ncccc1C(=O)OCc1ccccc1", "values": [{"measurement": "AC50", "setting": "[1]", "result": "11.6 µM [rising, partial curve]"}]}
{"smiles": "COc1cccc(C(=O)Nc2ccc3c(c2)C(=O)N(CC2CCCO2)C3=O)c1", "note": "(centres undefined)", "values": [{"measurement": "AC50", "setting": "[1]", "result": "20 µM [falling, partial curve, poor fit]"}]}
{"smiles": "CN(CC(=O)N1CCN(c2ncccn2)CC1)S(=O)(=O)c1ccc(Cl)cc1", "values": [{"measurement": "AC50", "setting": "[1]", "result": "35.5 µM [falling, single point]"}]}
{"smiles": "C=CCn1c(SCC(=O)NCC)nnc1-c1cc2c(s1)CCC(CC)C2", "note": "(centres undefined)", "values": [{"measurement": "AC50", "setting": "[1]", "result": "2.91 µM [rising, partial curve]"}]}
{"smiles": "CCN(CC)S(=O)(=O)c1ccc(N2CCOCC2)c(NC(=O)c2c3c(nc4ccccc24)CCC3)c1", "values": [{"measurement": "AC50", "setting": "[1]", "result": "2.91 µM [rising, full curve, poor fit]"}, {"measurement": "AC50", "setting": "[2]", "result": "5.8 µM [falling, partial curve, poor fit]"}]}
{"smiles": "CCOc1ccccc1C(=O)N1CCN(c2cccc(Cl)c2)CC1", "values": [{"measurement": "AC50", "setting": "[1]", "result": "2.91 µM [rising, full curve, poor fit]"}, {"measurement": "AC50", "setting": "[2]", "result": "2.06 µM [falling, full curve]"}]}
{"smiles": "Cc1cc(OCC(=O)N(Cc2ccccc2)C2CCS(=O)(=O)C2)ccc1Cl", "note": "(centres undefined)", "values": [{"measurement": "AC50", "setting": "[1]", "result": "10 µM [falling, partial curve]"}]}
{"smiles": "CC[C@]12c3[nH]c4ccc(Cl)cc4c3CCN1C(=O)[C@@H](CC(=O)NCc1cccc(C(F)(F)F)c1)C[C@@H]2C(=O)N1CCN(C(=O)C2CC2)CC1", "values": [{"measurement": "AC50", "setting": "[1]", "result": "29.1 µM [falling, single point]"}]}
{"smiles": "COc1cc2c(cc1OC)CN(C(=S)Nc1ccc(C)cc1C)CC2", "values": [{"measurement": "AC50", "setting": "[1]", "result": "4.11 µM [falling, single point]"}]}
{"smiles": "Clc1ccccc1/C=C/c1ccnc2ccccc12", "values": [{"measurement": "AC50", "setting": "[1]", "result": "20 µM [falling, single point]"}]}
{"smiles": "CC(C)Sc1cc(Cl)nc(NC(=O)Nc2ccccc2)n1", "values": [{"measurement": "AC50", "setting": "[1]", "result": "2 µM [falling, partial curve, poor fit]"}]}
{"smiles": "C=CCN1C(=O)S/C(=C\\c2ccc3c(c2)n(C)c(=O)n3C)C1=O", "values": [{"measurement": "AC50", "setting": "[1]", "result": "3.26 µM [rising, full curve]"}]}
{"smiles": "CCOc1cc(/C=C2\\SC(N3CCCCC3)=NC2=O)ccc1O", "values": [{"measurement": "AC50", "setting": "[1]", "result": "20 µM [falling, single point]"}]}
